Laboratory results: PubChem BioAssay AID743454 (Peter MacCallum Cancer Centre, 2014)

Aim: 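Search for knock-downs that restore vorinostat killing in resistant colon cancer cells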 (primary screen)
System: human HCT116-VR colon cancer cells, selected for vorinostat resistance
Reagents: siRNA pool against human genes, 40 nM siRNA pool
Duration: vorinostat for 24 h, read-out about 72 h after transfection
Conditions: vorinostat at 2.5 µM final
Measured: 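Two measures, CellTiter-Fluor viability and luminescent caspase 3/7 activity, each as fold change against same-plate mock wells, mean of duplicates, then screen-wide robust z-score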
Reading the numbers: viability robust z-score: higher = more viable cells than screen typical; caspase robust z-score: higher = more caspase 3/7 activity than screen typical
Active means: 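a knock-down is a hit when classed RV1 or RV2 for lowered viability, or CA1 or CA2 for caspase activation; those lethal without drug were dropped; hits were retested singly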
This is a random part of about 18,000 reagents. In the full data, 450 (2.5%) were called active. 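Single biological run; no consistent viability z cut-off exists, so the class columns, not z-scores, define the calls.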 Reagent sequences are not shown.

OGA [SID152155699] → viability hit class = no change; caspase hit class = no change; viability robust z-score = 1.08; caspase robust z-score = 0.26; activity call = inactive
NAIF1 [SID135624171] → viability hit class = no change; caspase hit class = no change; viability robust z-score = -1.12; caspase robust z-score = 0.7; activity call = inactive
MEF2C [SID134314196] → viability hit class = no change; caspase hit class = no change; viability robust z-score = 0.66; caspase robust z-score = 0.02; activity call = inactive
TCF7 [SID134323504] → viability hit class = no change; caspase hit class = no change; viability robust z-score = -1; caspase robust z-score = -0.44; activity call = inactive
CARTPT [SID134323648] → viability hit class = no change; caspase hit class = no change; viability robust z-score = -0.5; caspase robust z-score = -1.1; activity call = inactive
SCN2B [SID152151643] → viability hit class = no change; caspase hit class = no change; viability robust z-score = -0.05; caspase robust z-score = 0.22; activity call = inactive
VTN [SID152155146] → viability hit class = no change; caspase hit class = no change; viability robust z-score = 0; caspase robust z-score = 4.25; activity call = inactive
TMED7 [SID152152282] → viability hit class = no change; caspase hit class = no change; viability robust z-score = -0.3; caspase robust z-score = -0.9; activity call = inactive
PI4K2A [SID135621249] → viability hit class = no change; caspase hit class = no change; viability robust z-score = 1; caspase robust z-score = -0.92; activity call = inactive
ANO2 [SID134312154] → viability hit class = no change; caspase hit class = no change; viability robust z-score = 0.18; caspase robust z-score = -0.48; activity call = inactive
PAQR4 [SID152154715] → viability hit class = no change; caspase hit class = no change; viability robust z-score = 0.6; caspase robust z-score = 1.8; activity call = inactive
SERPINA1 [SID152155288] → viability hit class = no change; caspase hit class = no change; viability robust z-score = -0.57; caspase robust z-score = -0.3; activity call = inactive
ANKRD13C [SID135622792] → viability hit class = no change; caspase hit class = no change; viability robust z-score = 0.18; caspase robust z-score = -0.09; activity call = inactive

Targets above whose gene name begins with P or p (2):
PI4K2A [SID135621249] → viability hit class = no change; caspase hit class = no change; viability robust z-score = 1; caspase robust z-score = -0.92; activity call = inactive
PAQR4 [SID152154715] → viability hit class = no change; caspase hit class = no change; viability robust z-score = 0.6; caspase robust z-score = 1.8; activity call = inactive

The results go on:
CLEC18A [SID134322620] → viability hit class = no change; caspase hit class = no change; viability robust z-score = 0.08; caspase robust z-score = 1.12; activity call = inactive
NUP54 [SID135623354] → viability hit class = no change; caspase hit class = CA1 (caspase activation); viability robust z-score = -1.24; caspase robust z-score = 8.15; activity call = active
FOCAD [SID152152620] → viability hit class = no change; caspase hit class = no change; viability robust z-score = 0.06; caspase robust z-score = -0.12; activity call = inactive
SCPEP1 [SID135621124] → viability hit class = no change; caspase hit class = no change; viability robust z-score = 1.22; caspase robust z-score = 0.76; activity call = inactive
CTBP1 [SID135621605] → viability hit class = no change; caspase hit class = no change; viability robust z-score = -2.66; caspase robust z-score = 2.08; activity call = inactive
GZF1 [SID134312176] → viability hit class = no change; caspase hit class = no change; viability robust z-score = -0.55; caspase robust z-score = 3.88; activity call = inactive
YTHDC2 [SID134318395] → viability hit class = no change; caspase hit class = no change; viability robust z-score = 0.29; caspase robust z-score = 2.18; activity call = inactive
GMPR2 [SID152154108] → viability hit class = no change; caspase hit class = no change; viability robust z-score = 0.56; caspase robust z-score = -0.04; activity call = inactive
